{"sequences": {"note": "Chains of the proteins cited; added tags and fusions are not shown. Lines headed by an entry give the natural chain unless they say otherwise; changes in a name come on top.", "UniProt P18054": "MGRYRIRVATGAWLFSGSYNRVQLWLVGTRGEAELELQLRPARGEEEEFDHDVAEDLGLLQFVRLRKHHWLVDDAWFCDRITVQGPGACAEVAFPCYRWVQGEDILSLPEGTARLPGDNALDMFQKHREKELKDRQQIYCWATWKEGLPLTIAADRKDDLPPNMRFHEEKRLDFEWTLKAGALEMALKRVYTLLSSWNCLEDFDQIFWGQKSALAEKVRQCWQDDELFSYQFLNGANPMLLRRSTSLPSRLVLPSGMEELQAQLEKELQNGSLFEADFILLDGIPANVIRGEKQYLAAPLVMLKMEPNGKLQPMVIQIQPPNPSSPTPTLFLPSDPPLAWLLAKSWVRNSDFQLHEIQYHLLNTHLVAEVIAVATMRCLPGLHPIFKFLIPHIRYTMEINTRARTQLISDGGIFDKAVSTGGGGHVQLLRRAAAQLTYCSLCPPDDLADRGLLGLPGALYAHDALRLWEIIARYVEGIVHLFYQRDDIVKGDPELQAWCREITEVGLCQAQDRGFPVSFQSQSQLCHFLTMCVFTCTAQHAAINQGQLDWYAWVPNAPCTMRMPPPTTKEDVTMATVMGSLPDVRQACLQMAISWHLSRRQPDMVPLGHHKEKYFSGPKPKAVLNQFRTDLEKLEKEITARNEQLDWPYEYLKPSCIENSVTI"}, "source": "PubChem BioAssay AID1671190", "about": "(National Center for Advancing Translational Sciences (NCATS), 2021)", "note": "Among all 580,000 compounds or so, about 6,100 (1.1%) were called active. This list was built around the results that the source calls inconclusive (neither active nor inactive); the mix of calls is not that of the screen. The call rests on the fitted dose curve; in most records, active means well fitted inhibition curve with a large enough effect; inconclusive means small, poorly fitted or top-dose-only effect, or another doubt; inactive means no such curve, though single readings can be large or run the other way. Potencies beside an inconclusive call are fits to weak or partial responses and may not hold up. Potency means the concentration at half of the fitted maximal effect."}
{"biological_target": "Polyunsaturated fatty acid lipoxygenase ALOX12 (Homo sapiens) (UniProt P18054)", "assay": "Primary qHTS assay for inhibitors of human arachidonate 12S-lipoxygenase (ALOX12): Round 2", "settings": "purified 12hLO, xylenol orange hydroperoxide absorbance; series mostly up to 108 µM", "outline": "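Hydroperoxide product was detected by ferrous iron/xylenol orange as the 573 to 405 nm absorbance ratio. Arachidonic acid at 40 uM (final) was turned over for 30 min at room temperature by 150 nM human 12hLO, pH 7.0 Hepes buffer, after 15 min compound preincubation.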"}
{"smiles": "CS(=O)(=O)c1ccccc1-c1nnc(NC(=O)COc2ccc(Cl)cc2)o1", "Potency": "inactive"}
{"smiles": "CCCCCOc1ccc(C(O)C(CN2CCOCC2)c2ccccc2)cc1", "note": "(stereo unspecified)", "Potency": "inconclusive: 35.5 µM [inhibitor, partial curve, poor fit]"}
{"smiles": "COCC1CN(Cc2ccc(OC)cc2)CC12CCNCC2", "note": "(stereo unspecified)", "Potency": "inconclusive: 50.1 µM [inhibitor, partial curve]"}
{"smiles": "Cc1ccc(N2CC(NS(=O)(=O)c3cccs3)CC2=O)cc1C", "note": "(stereo unspecified)", "Potency": "inconclusive: 44.7 µM [inhibitor, partial curve, poor fit]"}
{"smiles": "CC(C)Cn1c(N)c(C(=O)COC(=O)Cc2cccc(C(F)(F)F)c2)c(=O)n(C)c1=O", "Potency": "inactive"}
{"smiles": "O=S1(=O)N[C@H](Cc2ccccc2)COc2cc(Br)ccc21", "Potency": "inconclusive: 100 µM [inhibitor, partial curve, poor fit]"}
{"smiles": "C(=N\\N(Cc1ccccc1)c1ccccc1)/c1ccco1", "Potency": "inconclusive: 56.2 µM [inhibitor, partial curve, poor fit]"}
{"smiles": "O=C(NCC(F)(F)F)C1C(=O)Nc2ccccc2C(=O)N1C1CCCC1", "note": "(stereo unspecified)", "Potency": "inconclusive: 3.55 µM [inhibitor, full curve, poor fit]"}
{"smiles": "COC(=O)c1ccc(NC(=O)COc2ccccc2OC)cc1", "Potency": "inconclusive: 100 µM [inhibitor, single point]"}
{"smiles": "COC(=O)C1=C(C)NC(=O)/C1=C\\c1cccs1", "Potency": "inactive"}
{"smiles": "Cc1ccccc1NC(=O)CSc1nc(=O)n(CCN2CCOCC2)c2c1CCCC2", "Potency": "inconclusive: 2 µM [inhibitor, partial curve, poor fit]"}
{"smiles": "CCOC(=O)c1cc(-c2ccc(F)cc2)n(CCC(=O)Nc2nc3cc(C)c(C)cc3s2)c1C", "Potency": "inconclusive: 178 µM [inhibitor, partial curve, poor fit]"}
{"smiles": "CC(C)CCN1CCC(N2CCN(C(=O)c3ccc(F)cc3)CC2)C1=O", "note": "(stereo unspecified)", "Potency": "inconclusive: 5.62 µM [inhibitor, partial curve, poor fit]"}
{"smiles": "Cc1nc(N2CCCC2)ncc1C(=O)Nc1ccc(OC(F)(F)F)cc1", "Potency": "inconclusive: 100 µM [inhibitor, partial curve, poor fit]"}
{"smiles": "COc1ccc(Cl)cc1NC(=O)Cn1nc(-c2ccc(C)c(C)c2)ccc1=O", "Potency": "inconclusive: 89.1 µM [inhibitor, partial curve, poor fit]"}
{"smiles": "CC(=O)c1ccc(NC(=O)N2C[C@@H]3C[C@H](C2)c2ccc(NS(=O)(=O)Cc4ccccc4)c(=O)n2C3)cc1", "Potency": "inconclusive: 2.82 µM [inhibitor, full curve]"}
{"smiles": "O=C(CN1CCN(c2nc(-c3ccc(F)cc3)cs2)CC1)NCc1ccc2c(c1)OCO2", "Potency": "inactive"}
{"smiles": "CCOC(=O)c1ccc(NC2c3ccccc3C(=O)N2c2cccnc2)cc1", "note": "(stereo unspecified)", "Potency": "inactive"}
{"smiles": "CC(C)N1C(=O)CC(Nc2ccc(N3CCOCC3)cc2)C1=O", "note": "(stereo unspecified)", "Potency": "inactive"}
{"smiles": "CCCN1CCN(C(=O)C2CCCN(c3cnc4nccnc4c3)C2)CC1", "note": "(stereo unspecified)", "Potency": "inconclusive: 50.1 µM [inhibitor, partial curve]"}
{"smiles": "O=C(OCC(=O)c1ccc(Cl)cc1Cl)c1ccccn1", "Potency": "inconclusive: 70.8 µM [inhibitor, partial curve, poor fit]"}
{"smiles": "CC(=O)N1CCc2c(sc(NC(=O)Cc3ccccc3)c2C#N)C1", "Potency": "inactive"}
{"smiles": "COc1ccc(CCNC(=O)CC2Sc3ccccc3NC2=O)cc1", "note": "(stereo unspecified)", "Potency": "inactive"}
{"smiles": "O=C1CN(C(=O)CCC(=O)N2CCCC(Cc3nncn3-c3ccccc3)C2)c2ccccc2N1", "note": "(stereo unspecified)", "Potency": "inactive"}
{"smiles": "C=CCc1cc(Cl)ccc1OCCCNCCO", "Potency": "inconclusive: 4.47 µM [inhibitor, full curve, poor fit]"}
{"smiles": "CCOC(=O)C1CCCN(C(=O)C2CCCN(S(=O)(=O)c3ccc4c(c3)oc(=O)n4C)C2)C1", "note": "(stereo unspecified)", "Potency": "inconclusive: 158 µM [inhibitor, single point]"}
{"smiles": "COc1cc(/C=C2/SC(=S)N(CCC(=O)N3CCN(C)CC3)C2=O)cc(OC)c1OC", "Potency": "inconclusive: 56.2 µM [inhibitor, partial curve, poor fit]"}
{"smiles": "Cn1ccc2c(C(=O)N3CCC(C(N)=O)CC3)cccc21", "Potency": "inactive"}
{"smiles": "Cc1cc(NC(=O)Cc2c(F)cccc2Cl)no1", "Potency": "inactive"}
{"smiles": "NC(N)=N/N=C/c1cc([N+](=O)[O-])ccc1O", "Potency": "inactive"}
{"smiles": "CC(C)(C)OC(=O)N1CCC[C@@H]1C(=O)N1CCC(C(=O)O)CC1", "Potency": "inconclusive: 63.1 µM [inhibitor, partial curve, poor fit]"}
{"smiles": "COc1ccc2[nH]c3c(c2c1)CCN1C(=O)C(CC(=O)NCc2ccc(OC)c(OC)c2)C[C@H](C(=O)N2CCCCC2)[C@@]31CCc1ccccc1", "note": "(stereo partly specified)", "Potency": "inconclusive: 56.2 µM [inhibitor, single point]"}
{"smiles": "CCn1ccc(C(=O)N2CCC(F)(c3nc(-c4ccncc4)no3)CC2)n1", "Potency": "inactive"}
{"smiles": "Cc1cc(C)cc(NC(=O)Cn2ncn3c(cc4ccccc43)c2=O)c1", "Potency": "inactive"}
{"smiles": "O=C(CN1c2cccc3cccc(c23)S1(=O)=O)Nc1cccc(S(=O)(=O)N2CCOCC2)c1", "Potency": "inconclusive: 39.8 µM [inhibitor, partial curve, poor fit]"}
{"smiles": "COc1cc2c(cc1OC)-c1c(c(C(=O)NCCN3CCOCC3)nn1-c1cccc(Cl)c1)C2", "Potency": "inconclusive: 44.7 µM [inhibitor, partial curve, poor fit]"}
{"smiles": "CS(=O)(=O)Nc1cccc(NC(=O)c2ccc(-n3ccnc3)c3ccoc23)c1", "Potency": "active: 10 µM"}
{"smiles": "COC(=O)[C@@]12C[C@@H](CC(=O)NCc3cccc(C(F)(F)F)c3)C(=O)N(Cc3ccccc3)C1=CCC(C)(C)C2", "Potency": "inactive"}
{"smiles": "CCOc1ccc(CCNC(=O)COC(=O)/C=C/c2ccc(C)o2)cc1OCC", "Potency": "inconclusive: 79.4 µM [inhibitor, partial curve, poor fit]"}
{"smiles": "CN1CCN(C(=S)c2cn(Cc3ccccc3)c3ccccc23)CC1", "Potency": "inactive"}
{"smiles": "COc1cc(CNCCO)ccc1OCCc1ccccc1", "Potency": "inactive"}
{"smiles": "CCC(CC)c1nnc(NC(=O)C2CC(=O)N(C3CCCC3)C2)s1", "note": "(stereo unspecified)", "Potency": "inconclusive: 70.8 µM [inhibitor, partial curve, poor fit]"}
{"smiles": "COc1cccc(-n2ccnc2SCC(=O)Nc2cccc3ccccc23)c1", "Potency": "inconclusive: 112 µM [inhibitor, partial curve, poor fit]"}
{"smiles": "Cc1cc(N2CCN(C(=O)OC(C)(C)C)C[C@H]2C)ccc1N1CC[C@@H](O)C1", "Potency": "inconclusive: 44.7 µM [inhibitor, partial curve, poor fit]"}
{"smiles": "COc1ccccc1N1CCN(CCn2c(=O)[nH]c3c([nH]c4ccccc43)c2=O)CC1", "Potency": "inactive"}
{"smiles": "COc1ccc(C(=O)CNc2ccccc2CO)cc1", "Potency": "inactive"}
{"smiles": "O=C(C(Cl)c1ccccc1)N1CCCC1", "note": "(stereo unspecified)", "Potency": "inconclusive: 35.5 µM [inhibitor, partial curve, poor fit]"}
{"smiles": "CN(C)/C=C1/C(=O)N(c2ccc([N+](=O)[O-])cc2)N=C1c1ccccc1", "Potency": "inconclusive: 50.1 µM [inhibitor, partial curve, poor fit]"}
{"smiles": "COc1ccc(-n2c(CC3C(=O)Nc4ccc(C)cc43)nc3ccccc3c2=O)cc1", "note": "(stereo unspecified)", "Potency": "inconclusive: 89.1 µM [inhibitor, partial curve, poor fit]"}
{"smiles": "Cc1ccc2nsnc2c1S(=O)(=O)Nc1ccccc1C(=O)O", "Potency": "inconclusive: 3.16 µM [inhibitor, full curve, poor fit]"}
{"smiles": "O=C(Oc1ccc2c(=O)c(Oc3ccccc3Br)coc2c1)c1ccccc1", "Potency": "inconclusive: 31.6 µM [inhibitor, single point]"}
{"smiles": "C[n+]1ccccc1/C=C/c1ccccc1Cl", "Potency": "inconclusive: 44.7 µM [inhibitor, partial curve, poor fit]"}
{"smiles": "Cc1ccc(S(=O)(=O)N2[C@@H](c3ccccc3)C(C(=O)O)=CC[C@H]2c2ccc(Cl)cc2)cc1", "Potency": "inconclusive: 89.1 µM [inhibitor, partial curve, poor fit]"}
{"smiles": "COc1ccc(C2(C(=O)NCC3CCCO3)CCOCC2)cc1", "note": "(stereo unspecified)", "Potency": "inconclusive: 63.1 µM [inhibitor, partial curve, poor fit]"}
{"smiles": "CCCCC1=NN(C(=O)c2ccncc2)C(O)(C(F)(F)F)C1", "note": "(stereo unspecified)", "Potency": "inactive"}
{"smiles": "COc1ccc([C@@H]2C(C#N)=C(N)S[C@@H](c3ccccc3)[C@@H]2[N+](=O)[O-])cc1", "Potency": "inconclusive: 50.1 µM [inhibitor, partial curve, poor fit]"}
{"smiles": "Cc1cc(C)c2nc(NC(=O)c3ccco3)sc2c1", "Potency": "inactive"}
{"smiles": "CC(C)(C)OC(=O)[C@H](Cc1ccccc1)NC(=O)c1[nH]cnc1C(=O)Nc1ccc(Cl)cc1", "Potency": "inconclusive: 31.6 µM [inhibitor, partial curve]"}
{"smiles": "N#CC1=C2SCN(c3ccccc3)CN2C(=O)CC1c1ccccc1Cl", "note": "(stereo unspecified)", "Potency": "inconclusive: 3.16 µM [inhibitor, full curve, poor fit]"}
{"smiles": "CCOC(=O)c1c(C)c(-c2ccccc2)n(CC(=O)N2CCN(C)CC2)c1C", "Potency": "inactive"}
{"smiles": "O=C1/C(=C/c2cccs2)SC(=S)N1N1CCOCC1", "Potency": "inconclusive: 100 µM [inhibitor, partial curve, poor fit]"}
{"smiles": "O=C(Cc1ccccc1Cl)N1CCC2(CC1)NC(=O)N(c1cccc(F)c1)N2", "Potency": "inconclusive: 44.7 µM [inhibitor, partial curve, poor fit]"}
{"smiles": "CC1(C)Cc2ccccc2-c2nc(CN3CCCCC3)[nH]c(=O)c21", "Potency": "inactive"}
{"smiles": "CC(C)c1ccc([C@@H]2O[C@H](C)CC3=C2C(=O)OC(C)(C)O3)cc1", "Potency": "inconclusive: 100 µM [inhibitor, single point]"}
{"smiles": "CCN1C(=O)C2(CCN(S(=O)(=O)c3ccc(C)c(F)c3)CC2)c2ccccc21", "Potency": "inconclusive: 11.2 µM [inhibitor, full curve]"}
{"smiles": "O=[N+]([O-])c1cc(Br)cc(/C=N/n2cnnc2)c1O", "Potency": "inconclusive: 100 µM [inhibitor, single point]"}
